Reference: PubChem BioAssay AID1347075 (National Center for Advancing Translational Sciences (NCATS), 2019)
The campaign covered roughly 400,000 compounds. About 5,500 (1.4%) were called active. The inconclusive results got no clear call from the source; some entries with a clear call stand among them for comparison. Calls follow the shape of the dose curve; as a rule, active = well fitted cell-killing curve with a large enough effect; inconclusive = small, poorly fitted or top-dose-only effect, or effect the other way; inactive = flat fitted curve, though single readings scatter. A potency beside an inconclusive call is a rough fit, not a confirmed value.
Potency is read from the fitted curve at half-maximal effect.

Assay: qHTS assay for MDR1-selective chemotherapeutics: Primary screen using the parental adenocarcinoma cell KB-3-1; also: nearly all actives have a fitted effect of over 60% in size
Settings: KB-3-1 viability, CellTiter-Glo ATP luminescence, 72 h; series mostly up to 46.1 µM
In short: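 Cytotoxicity in the drug-sensitive parental line KB-3-1 was scored as loss of CellTiter-Glo luminescence following 72 h incubation with compound. Values come from curve fitting of normalized concentration-response data.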
With `Cn1c(SCC(=O)NC(C)(C)C)nnc1-c1cccc(NC(=O)c2ccccc2F)c1` the Potency was inconclusive: 23.1 µM [rising, single point]. For `CCCCCCn1c2c(c(=N)c3c1CCC3)CCC2`, the Potency was active: 2.06 µM. For `COc1ccc(OC)c(/C=C/C(=O)N2C(=O)c3cccc(N)c3C2=O)c1`, the Potency was inconclusive: 25.9 µM [cytotoxic, single point]. For `C=C1c2nc3ccccc3n2C=C(c2ccc(C)cc2)N1c1ccccc1`, the Potency was active: 16.4 µM. In the case of `Nc1ncnc2c1ncn2[C@@H]1O[C@H](C(=O)Nc2cc(C(F)(F)F)cc(C(F)(F)F)c2)[C@@H](O)[C@H]1O`, the Potency is reported as “inactive”. In the case of `CC(=O)Nc1cccc(-c2ccnc3c2CC(C)(C(=O)Nc2cccc(OC(F)(F)F)c2)O3)c1` (configuration not stated), the Potency is reported as inconclusive: 29.1 µM [cytotoxic, single point]. In the case of `COc1cccc2c1C(=O)c1c(O)c3c(c(O)c1C2=O)C[C@@](O)(C(=O)CO)C[C@@H]3O[C@H]1C[C@H](N)[C@H](O)[C@H](C)O1`, the Potency is reported as inconclusive: 0.651 µM [cytotoxic, full curve, poor fit]. For `O=C(Nc1ccc(OC(F)(F)F)cc1)C1CCN(S(=O)(=O)c2ccc3[nH]c(=O)ccc3c2)CC1`, the Potency was “inactive”. With `COc1ccc([C@H]2C[C@@H](O)[C@H](n3cc(C4CC4)nn3)CN2C(=O)c2cccs2)cc1` the Potency was “inactive”. For `O=C(c1cnn2c1NC(c1ccco1)CC2C(F)(F)F)N1CCN(c2cccc(Cl)c2)CC1` (configuration not stated), the Potency was inconclusive: 18.4 µM [cytotoxic, single point]. For `Cc1cc(OCCOCCNC(C)C)cc(C)c1Cl`, the Potency was inconclusive: 29.1 µM [cytotoxic, single point]. With `CCn1c(=O)n(CC)c2cc(NS(=O)(=O)c3ccccc3)ccc21` the Potency was inconclusive: 9.2 µM [cytotoxic, partial curve]. For `Cc1cccc(N2CCN(S(=O)(=O)c3c(C)[nH]c(C)c3C(=O)N3CCCCC3)CC2)c1C`, the Potency was inconclusive: 18.4 µM [cytotoxic, single point]. In the case of `CCOC(=O)C1=C(C)NC(C)=C(C(=O)OCC)C1C(=O)OCC(=O)NC1(C#N)CCCCC1`, the Potency is reported as “inactive”. For `CCOC(=O)N/N=C/c1cn(Cc2ccc(F)cc2)c2ccccc12`, the Potency was inconclusive: 9.2 µM [cytotoxic, partial curve, poor fit]. For `COc1ccc2c(c1)[C@H]1[C@H](CO2)[C@H](c2ccccc2)[C@]2(C)C(=O)Nc3cc(F)c(F)cc3C(=O)N12`, the Potency was inconclusive: 23.1 µM [cytotoxic, single point]. For `Cc1cc(C)nc(N/N=C/c2c(C)oc3ccccc23)n1`, the Potency was inconclusive: 29.1 µM [rising, single point]. With `COc1cc(SC)ccc1C(=O)NNC(=O)c1cc(C)oc1C` the Potency was inconclusive: 20.6 µM [cytotoxic, partial curve, poor fit]. For `O=C(Nc1ccccc1)C1=C[C@@H](c2coc3ccccc3c2=O)C[C@@H](OCc2ccc(CO)cc2)O1`, the Potency was “inactive”. For `O=C(CCNc1ccc(Cl)cc1)c1cccs1`, the Potency was “inactive”. For `Cc1nn(C)c(C)c1S(=O)(=O)N(CC(=O)NC1CCCCCC1)c1ccc(C(C)C)cc1`, the Potency was “inactive”. With `CC(OC(=O)c1cccn1C)C(=O)Nc1ccc2c(c1)OCO2` (configuration not stated) the Potency was inconclusive: 29.1 µM [cytotoxic, single point]. In the case of `COc1ccc(OC2C(=O)N(c3cc(C)ccc3C)C2c2ccc(OC)c(OC)c2)cc1` (configuration not stated), the Potency is reported as “inactive”. In the case of `CCCCC(=O)O[C@H]1CC[C@H]2[C@@H]3CCc4cc(O)ccc4[C@H]3CC[C@]12C`, the Potency is reported as inconclusive: 20.6 µM [cytotoxic, single point]. For `COc1ccc(-n2cc(CNC3CCOCC3)c(-c3cccc(F)c3)n2)cc1`, the Potency was inconclusive: 29.1 µM [cytotoxic, single point]. For `CCOC(=O)Cn1c(C)[n+](CC(=O)c2ccccc2)c2ccccc21`, the Potency was inconclusive: 11.6 µM [rising, single point]. With `CNC(=O)c1oc(-c2ccccc2)nc1C` the Potency was “inactive”. For `CCN(CC(=O)Nc1ccc(OC)c(OC)c1)S(=O)(=O)c1ccc(C)cc1`, the Potency was “inactive”. With `O=C(c1ccc(F)cc1F)C1CCN(c2ccc([N+](=O)[O-])cn2)CC1` the Potency was inconclusive: 11.6 µM [cytotoxic, partial curve, poor fit]. With `Cc1cccc(NC(=O)CNC(=O)COc2ccc(C(=O)c3ccc(F)cc3)cc2)c1C` the Potency was active: 6.51 µM. For `CCCCOC(=O)c1ccc(OC(=O)c2sc3ncn(Cc4ccccc4Cl)c(=O)c3c2C)cc1`, the Potency was inconclusive: 20.6 µM [rising, single point]. For `CCC(C)(C)n1nnnc1C(c1ccc(OC)c(OC)c1)N1CCN(c2ccccc2)CC1` (configuration not stated), the Potency was inconclusive: 11.6 µM [cytotoxic, partial curve, poor fit]. In the case of `Cn1cnc([N+](=O)[O-])c1Sc1nc(N)nc2c1ncn2Cc1ccccc1`, the Potency is reported as inconclusive: 20.6 µM [cytotoxic, single point]. For `Cc1cccc(Nc2nc(-c3sc(C)nc3C)cs2)c1`, the Potency was inconclusive: 32.6 µM [cytotoxic, single point]. For `CC(C)NC(=O)N(C)C[C@@H]1Oc2ccc(NC(=O)Nc3ccc(C(F)(F)F)cc3)cc2CC(=O)N([C@H](C)CO)C[C@@H]1C`, the Potency was inconclusive: 29.1 µM [cytotoxic, single point]. With `Cc1ccc(Cl)cc1Nc1sc(C(=O)c2ccc(F)cc2)c(N)c1S(C)(=O)=O` the Potency was “inactive”. For `O=C(CN(Cc1ccccc1Cl)C(=O)c1csnn1)NC1CCCC1`, the Potency was “inactive”. In the case of `COc1ccc(-c2csc(NC(=O)c3cccc(N4C(=O)CCC4=O)c3)n2)cc1OC`, the Potency is reported as inconclusive: 10.3 µM [rising, partial curve, poor fit]. In the case of `COc1cc(CC2COC(=O)C2(O)Cc2ccc(O)c(OC)c2)ccc1O` (configuration not stated), the Potency is reported as “inactive”. In the case of `O=C(CSc1nc(=O)n(Cc2ccco2)c2c1CCC2)Nc1cccc(F)c1`, the Potency is reported as “inactive”. For `Cc1cccc(NC(=O)COc2ccccc2C(=O)NC(C)c2ccccc2)c1` (configuration not stated), the Potency was inconclusive: 29.1 µM [cytotoxic, single point]. In the case of `CCOc1cc(N2CCOCC2)c(OCC)cc1NC(=O)COC(=O)COc1cc(C)cc(C)c1`, the Potency is reported as inconclusive: 29.1 µM [rising, single point].
